In the M2OR odorant receptor database:
The list shows a part of the results, in another mix than the full data. The calls were merged from several studies; some rest on single wells.

Protein sequences, listed by entry. Tags and fused reporters are not part of them. Lines headed by an entry give the natural chain unless they say otherwise; changes in a name come on top.
UniProt B2RN74: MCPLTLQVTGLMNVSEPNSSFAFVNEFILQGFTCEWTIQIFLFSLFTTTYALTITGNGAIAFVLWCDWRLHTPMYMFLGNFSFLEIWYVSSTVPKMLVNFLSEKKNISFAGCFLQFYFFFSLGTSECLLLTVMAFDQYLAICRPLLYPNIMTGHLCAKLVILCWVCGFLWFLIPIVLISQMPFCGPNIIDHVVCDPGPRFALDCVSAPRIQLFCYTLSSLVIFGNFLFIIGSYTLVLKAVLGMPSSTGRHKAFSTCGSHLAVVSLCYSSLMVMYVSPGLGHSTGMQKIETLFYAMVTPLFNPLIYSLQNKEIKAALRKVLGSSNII

Legend:
Settings in all cases: stereoisomer not certain
[1] = target: T1, OR11A1 (Homo sapiens) (UniProt Q9GZK7)
T1 sequence (whole entry): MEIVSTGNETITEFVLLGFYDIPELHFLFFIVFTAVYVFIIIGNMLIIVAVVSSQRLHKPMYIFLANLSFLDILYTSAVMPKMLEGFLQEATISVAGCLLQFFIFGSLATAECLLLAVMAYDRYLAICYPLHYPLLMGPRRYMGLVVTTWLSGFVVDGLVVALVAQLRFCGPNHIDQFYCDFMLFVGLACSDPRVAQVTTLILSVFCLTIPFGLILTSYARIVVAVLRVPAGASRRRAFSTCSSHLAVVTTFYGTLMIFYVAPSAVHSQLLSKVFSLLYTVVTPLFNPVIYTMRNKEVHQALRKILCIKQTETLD
Procedure, shortened: (§1)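 Each receptor–molecule pair is labelled responsive or non-responsive (inactive) according to whether the original authors judged the measured signal statistically different from baseline. The data were taken from the main text and supplementary material of published papers and checked for typos and inconsistencies. Assay methods differed by source, with transient luciferase assays in mammalian cell lines being common.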

[2] = target: T2, OR11H4 (Homo sapiens) (UniProt Q8NGC9)
T2 sequence (whole entry): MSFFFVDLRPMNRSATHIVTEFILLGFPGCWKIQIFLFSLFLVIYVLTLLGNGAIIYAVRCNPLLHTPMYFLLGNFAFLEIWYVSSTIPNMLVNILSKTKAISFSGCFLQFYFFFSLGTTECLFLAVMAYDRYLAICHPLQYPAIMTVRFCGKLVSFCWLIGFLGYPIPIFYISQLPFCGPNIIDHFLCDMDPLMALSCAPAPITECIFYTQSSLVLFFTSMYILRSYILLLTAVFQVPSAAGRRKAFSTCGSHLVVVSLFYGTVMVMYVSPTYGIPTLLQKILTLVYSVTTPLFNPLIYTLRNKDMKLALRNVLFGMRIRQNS
Procedure, shortened: as §1

[3] = target: T3, OR11H6 (Homo sapiens) (UniProt Q8NGC7)
T3 sequence (whole entry): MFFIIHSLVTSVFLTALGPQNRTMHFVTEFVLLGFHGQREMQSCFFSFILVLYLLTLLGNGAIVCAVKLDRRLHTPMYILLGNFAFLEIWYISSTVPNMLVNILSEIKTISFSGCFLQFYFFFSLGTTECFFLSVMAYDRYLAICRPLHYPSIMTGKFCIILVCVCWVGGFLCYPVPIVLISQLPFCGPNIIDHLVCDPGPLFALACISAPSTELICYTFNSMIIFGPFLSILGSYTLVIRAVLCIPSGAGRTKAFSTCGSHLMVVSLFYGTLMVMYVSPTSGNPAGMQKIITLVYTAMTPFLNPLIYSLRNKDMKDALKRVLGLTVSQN
Procedure, shortened: as §1

[4] = target: T4, OR12D2 (Homo sapiens) (UniProt P58182)
T4 sequence (whole entry): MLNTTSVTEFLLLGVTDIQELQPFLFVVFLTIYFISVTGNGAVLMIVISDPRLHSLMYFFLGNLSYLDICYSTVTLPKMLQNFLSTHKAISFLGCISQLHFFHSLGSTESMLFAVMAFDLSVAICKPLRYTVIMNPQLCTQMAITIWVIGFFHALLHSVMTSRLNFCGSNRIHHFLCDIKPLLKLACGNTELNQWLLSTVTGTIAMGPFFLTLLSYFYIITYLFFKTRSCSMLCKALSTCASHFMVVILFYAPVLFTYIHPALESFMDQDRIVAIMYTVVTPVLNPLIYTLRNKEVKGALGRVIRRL
Procedure, shortened: as §1

[5] = target: T5, OR12D3 (Homo sapiens) (UniProt Q9UGF7)
T5 sequence (whole entry): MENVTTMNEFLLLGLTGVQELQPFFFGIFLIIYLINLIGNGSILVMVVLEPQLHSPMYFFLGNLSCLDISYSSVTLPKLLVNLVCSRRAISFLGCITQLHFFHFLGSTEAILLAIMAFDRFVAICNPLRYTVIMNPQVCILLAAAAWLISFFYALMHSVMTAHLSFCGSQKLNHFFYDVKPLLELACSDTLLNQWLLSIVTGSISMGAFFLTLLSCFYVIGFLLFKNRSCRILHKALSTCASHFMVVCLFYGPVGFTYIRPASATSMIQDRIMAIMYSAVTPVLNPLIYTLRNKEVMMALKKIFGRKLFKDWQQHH
Procedure, shortened: as §1

[6] = target: T6, OR13A1 (Homo sapiens) (UniProt Q8NGR1)
T6 sequence (whole entry): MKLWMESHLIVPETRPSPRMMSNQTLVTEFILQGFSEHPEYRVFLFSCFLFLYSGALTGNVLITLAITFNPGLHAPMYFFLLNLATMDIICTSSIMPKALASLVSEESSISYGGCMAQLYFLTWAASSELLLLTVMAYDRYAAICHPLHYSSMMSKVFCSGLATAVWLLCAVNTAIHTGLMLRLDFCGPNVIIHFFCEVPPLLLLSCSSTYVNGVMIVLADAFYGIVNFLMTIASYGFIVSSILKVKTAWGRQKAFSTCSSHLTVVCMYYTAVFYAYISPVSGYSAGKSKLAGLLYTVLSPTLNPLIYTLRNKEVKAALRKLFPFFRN
Procedure, shortened: as §1

[7] = target: OR11H12 (Homo sapiens) (UniProt B2RN74)
Procedure, shortened: as §1

Measured: odorant receptor agonist call

CC(C)CCC(=O)O
active: [2]
not listed: [7]
inactive: all other assays above

CC(C)(C)c1ccc(CCC=O)cc1
not listed: [7]
inactive: all other assays above

CC(C)C=O
not listed: [7]
inactive: all other assays above

C=C(C)C1CC=C(C)C(=O)C1 (stereo unspecified)
active: [7]

CC1=CCC(C(C)(C)O)CC1 (stereo unspecified)
not listed: [7]
inactive: all other assays above

O=C1CCCCC1
active: [4]
not listed: [7]
inactive: all other assays above

CCCCCCCC=CC=O
not listed: [7]
inactive: all other assays above

C=CCSCC=C
not listed: [7]
inactive: all other assays above

COC(=O)c1ccccc1O
not listed: [7]
inactive: all other assays above

CC(C)=CCCC(C)=CC=O
not listed: [7]
inactive: all other assays above

COC(=O)c1ccccc1
not listed: [7]
inactive: all other assays above

CCC1(O)C2(C)CCC(C2)C1(C)C (stereo unspecified)
active: [1]
not listed: [7]
inactive: all other assays above

CCCCO
not listed: [7]
inactive: all other assays above

CC1COCc2cc3c(cc21)C(C)(C)C(C)C3(C)C (stereo unspecified)
not listed: [7]
active: all other assays above

O=C1CCCCCCCCCCCC(=O)OCCO1
not listed: [7]
inactive: all other assays above

CC1=NC(C)SC1C (stereo unspecified)
not listed: [7]
inactive: all other assays above

CCC=CCCO
not listed: [7]
inactive: all other assays above

CCCCCCOC(=O)CCC
not listed: [7]
inactive: all other assays above

c1cnccn1
not listed: [7]
inactive: all other assays above

CCCCCCCOC(C)=O
not listed: [7]
inactive: all other assays above

COc1cc(C)ccc1O
not listed: [7]
inactive: all other assays above

CC(=O)OC1CC2CCC1(C)C2(C)C (stereo unspecified)
not listed: [7]
inactive: all other assays above

O=CCc1ccccc1
not listed: [7]
inactive: all other assays above

COc1ccccc1O
not listed: [7]
inactive: all other assays above

CCCCCOC(C)=O
not listed: [7]
inactive: all other assays above

COc1cc(C=O)ccc1O
not listed: [7]
inactive: all other assays above
